Measurements reported in PubChem BioAssay AID1259405 (NCATS, 2018).

Test: 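Silenced genes that increase secreted GFP made by CHO cells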 (primary screen)
System: Chinese hamster CHO-K1 ovary cells with stable secreted eGFP expression
Reagent: single siRNA against mouse genes, 0.8 pmol siRNA per well (2 µl of 400 nM stock)
Duration: 3 days
Detection: 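Per-well intracellular GFP measured by laser scanning cytometry, plus viability from ATP luminescence, each relative to plate median of non-targeting control wells, in %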
Direction: GFP, % of control: higher = more GFP per well, higher productivity; viability (ATP), % of control: higher = more viable cells (more ATP)
Active means: 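a knock-down is called active if GFP reaches 120% or more of non-targeting control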
In all, the deposit lists about 50,000 reagents; below is a part drawn at random. About 4,000 of them (8%) were called active. 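Mouse siRNA library applied to hamster cells; one well for each siRNA.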 Entries without a mark were called inactive. The numbers tell different reagents against one gene apart.

After knock-down of Cfap97 #1, the record shows GFP, % of control 62.1; viability (ATP), % of control 80.
With knock-down of Cfap97 #2, the screen gave GFP, % of control 73.3; viability (ATP), % of control 82.1.
Knock-down of Cfap97 #3 gave: GFP, % of control 83.3; viability (ATP), % of control 87.3.
Silencing of Ak8 #1 resulted in: GFP, % of control 184 (active); viability (ATP), % of control 128.
Against Ak8 #2 the deposit lists GFP, % of control 120 (active); viability (ATP), % of control 105.
For Ak8 #3 the deposit lists GFP, % of control 90.8; viability (ATP), % of control 83.2.
Depletion of Catsperb #1 came out at: GFP, % of control 80.8; viability (ATP), % of control 93.6.
With knock-down of Catsperb #2 the results were GFP, % of control 80.9; viability (ATP), % of control 76.4.
Catsperb #3 scored GFP, % of control 92.8; viability (ATP), % of control 107.
Knock-down of Ptpn21 #1 gave: GFP, % of control 48.1; viability (ATP), % of control 86.2.
Ptpn21 #2 showed GFP, % of control 87.2; viability (ATP), % of control 68.5.
Depletion of Ptpn21 #3 gave: GFP, % of control 63.1; viability (ATP), % of control 88.3.
Rnase6 #1 showed GFP, % of control 113; viability (ATP), % of control 133.
Silencing of Rnase6 #2 gave: GFP, % of control 89.2; viability (ATP), % of control 59.2.
Rnase6 #3 gave GFP, % of control 93.9; viability (ATP), % of control 87.3.
Silencing of Zfp606 #1 came out at: GFP, % of control 98.1; viability (ATP), % of control 78.6.
Against Zfp606 #2, the entry reads GFP, % of control 69.1; viability (ATP), % of control 70.8.
Phgr1 #1 gave GFP, % of control 105; viability (ATP), % of control 90.2.
Silencing of Phgr1 #2 resulted in: GFP, % of control 70.9; viability (ATP), % of control 89.7.
After knock-down of Phgr1 #3, the screen gave GFP, % of control 66.7; viability (ATP), % of control 76.6.
With knock-down of Cckar #1 the results were GFP, % of control 98; viability (ATP), % of control 73.8.
For Cckar #2, the entry reads GFP, % of control 71.8; viability (ATP), % of control 77.
With knock-down of Cckar #3, the record shows GFP, % of control 105; viability (ATP), % of control 76.7.
Against Scart1 #1 the deposit lists GFP, % of control 67.8; viability (ATP), % of control 80.4.
Against Scart1 #2 the deposit lists GFP, % of control 63.1; viability (ATP), % of control 84.4.
Scart1 #3 showed GFP, % of control 70.4; viability (ATP), % of control 70.5.
Knock-down of Prdm1 #1 came out at: GFP, % of control 92.4; viability (ATP), % of control 93.1.
Prdm1 #2 gave GFP, % of control 142 (active); viability (ATP), % of control 78.2.
Prdm1 #3 scored GFP, % of control 111; viability (ATP), % of control 93.3.
Knock-down of Spag7 #1 gave: GFP, % of control 165 (active); viability (ATP), % of control 108.
After knock-down of Spag7 #2, the record shows GFP, % of control 10.7; viability (ATP), % of control 101.
Against Spag7 #3, the values are GFP, % of control 63.7; viability (ATP), % of control 67.4.
With knock-down of Hspa5 #1, the record shows GFP, % of control 55.5; viability (ATP), % of control 44.6.
Knock-down of Hspa5 #2 gave: GFP, % of control 55.1; viability (ATP), % of control 38.1.
Depletion of Hspa5 #3 resulted in: GFP, % of control 92.9; viability (ATP), % of control 112.
Ly6a #1 gave GFP, % of control 70.7; viability (ATP), % of control 63.5.
Silencing of Ly6a #2 came out at: GFP, % of control 108; viability (ATP), % of control 81.4.
With knock-down of Ly6a #3, the record shows GFP, % of control 126 (active); viability (ATP), % of control 74.
Against Alkbh5 #1 the deposit lists GFP, % of control 95.8; viability (ATP), % of control 89.2.
With knock-down of Alkbh5 #2, the screen gave GFP, % of control 74.2; viability (ATP), % of control 83.4.
Alkbh5 #3 scored GFP, % of control 57.4; viability (ATP), % of control 64.
